Results from the supplement of paper PMC4635364.
Counter-ions that a name gives are not always drawn. The list shows a part of the results. This data set is noisy: repeats of one test often differ as much as different tests do.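 ReNCell VM, a human fetal ventral-midbrain neural progenitor line, was differentiated without mitogens. Blinded raters scored images stained for doublecortin (early neurons) or tyrosine hydroxylase (dopaminergic neurons) against untreated wells (0 = no change). Scores were averaged across repeats and both raters, and compounds averaging 2 or more were selected as hits for retesting.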

Tested on: ReNCell VM
Test: neuronal differentiation score (DCX+ cell fraction vs untreated, manual image score) (score (-3 to 3)); higher = more neuronal differentiation
Conditions: library: LOPAC; 2 uM; 2 weeks

Neuronal differentiation score, inactive:
CCCCCC(O)c1cccc(OCc2ccc3ccccc3n2)c1 (stereo unspecified) 0, C[C@H]1C[C@H]2[C@@H]3CCC4=CC(=O)C=C[C@]4(C)[C@@]3(Cl)[C@@H](O)C[C@]2(C)[C@@]1(O)C(=O)CO [Beclomethasone] 0, CNc1ncnc2c1ncn2[C@@H]1O[C@H](CO)[C@@H](O)[C@H]1O [N6-Methyladenosine] 1, CC(C)NC[C@H](O)COc1cccc2[nH]ccc12 [S(-)-Pindolol] 0

Same assay, conditions: library: Natural; 2 uM; 2 weeks

Neuronal differentiation score, inactive:
O=C(O)[C@H](O)[C@@](O)(Cc1ccc(O)cc1)C(=O)O [piscidic acid] 0, CC(C)=CCCC1(C)C=Cc2c(c(C)cc3c2[nH]c2ccccc23)O1 (stereo unspecified) [mahanimbine] 0, CC1(C)Oc2ccc3ccc(=O)oc3c2CC1=O [8,8-dimethyl-10h-pyrano[2,3-f]chromene-2,9-dione] 0

Same assay, conditions: library: Prestwick; 2 uM; 2 weeks

Neuronal differentiation score, inactive:
CC(C)(C)C(=O)OCOC(=O)[C@@H]1N2C(=O)[C@@H](/N=C/N3CCCCCC3)[C@H]2SC1(C)C [Pivmecillinam hydrochloride] 0, C=CCOC(Cn1ccnc1)c1ccc(Cl)cc1Cl (stereo unspecified) [Enilconazole] 0, N=C(N)NC(=N)NCCc1ccccc1 [Phenformin hydrochloride] 0, c1cnc(N2CCN(Cc3ccc4c(c3)OCO4)CC2)nc1 [Piribedil hydrochloride] 0, CS(=O)(=O)c1ccc([C@@H](O)[C@@H](CF)NC(=O)C(Cl)Cl)cc1 [Florfenicol] 0, CC[N+](C)(CC)CCC[n+]1c(-c2ccccc2)c2cc(N)ccc2c2ccc(N)cc21 [Propidium iodide] -3

Same assay, conditions: library: Spectrum; 2 uM; 2 weeks

Neuronal differentiation score, inactive:
O=C(O)/C=C/C=C/c1ccc2c(c1)OCO2 0, CO[C@@H]1[C@@H](OC(N)=O)[C@@H](O)[C@H](Oc2ccc3c(O)c(NC(=O)c4ccc(O)c(CC=C(C)C)c4)c(=O)oc3c2C)OC1(C)C 0, C=C1CC=C(C)CC[C@@H]2[C@@H]1CC2(C)C 0, C[C@H]1COc2c(C3(N)CC3)c(F)cc3c(=O)c(C(=O)O)cn1c23 0, NCCCCNCCCN 0, COC(=O)C1=CO[C@@H](O[C@@H]2O[C@H](CO)[C@@H](O)[C@H](O)[C@H]2O)[C@H]2[C@@H]1C(=O)C[C@@H]2C 1, C#CC1(O)CC[C@H]2[C@@H]3CCC4=CC(=O)CC[C@@H]4[C@H]3CC[C@@]21CC (stereo partly specified) 0, COc1cc(OC)c2c(=O)c(OC)c(-c3ccccc3)oc2c1 0, C[C@]12CCC3c4ccc(OC(=O)c5ccccc5)cc4CCC3C1CCC2=O (stereo partly specified) 0, CCC(=O)O[C@H]1[C@H](O[C@@H]2[C@@H](C)[C@H](O[C@H]3C[C@@](C)(OC)[C@@H](O)[C@H](C)O3)[C@@H](C)C(=O)O[C@H](CC)[C@@](C)(O)[C@H](O)[C@@H](C)C(=O)[C@H](C)C[C@@]2(C)O)O[C@H](C)C[C@@H]1N(C)C 0, COc1cc(C)c2c(=O)cc(-c3ccccc3)oc2c1 0, CC(=O)OCC(=O)[C@@]1(O)CC[C@H]2[C@@H]3CCC4=CC(=O)CC[C@]4(C)[C@@]3(F)[C@@H](O)C[C@@]21C 0, Cc1ccc(Cl)c(Nc2ccccc2C(=O)O)c1Cl -1, N[C@H]1CONC1=O 0, CC(N)CCCC(C)(C)O (stereo unspecified) 0, O=C1C=CC(=C(c2ccc(O)cc2)c2ccc(O)cc2)C=C1 0, C1CNCCN1 0, CC(=O)Oc1c(C)cccc1C(=O)O 0, CCCCCCCCCCCCCCCCCCOCC(O)CO (stereo unspecified) 0, COc1c(N2CCNC(C)C2)c(F)cc2c(=O)c(C(=O)O)cn(C3CC3)c12 (stereo unspecified) -1, O=C1CCC(N2C(=O)c3ccccc3C2=O)C(=O)N1 (stereo unspecified) 0, CN(C)CCN(Cc1cccs1)c1ccccn1 0, CCCCOc1ccc(C(=O)CCN2CCCCC2)cc1 0
